Measurements reported in article PMC10901769, “An anti-CRISPR that represses its own transcription while blocking Cas9-target DNA binding”.
Substitutions are numbered along the chain they refer to. A weaker result is weaker than the reference pair of the same experiment. Protein sequences can lack the tags named with them. For part of these data: Construct, isoform or probe ends are uncertain for at least one entry. For part of these data: At least one verdict rests on a figure or table, not on a statement of the authors.

Experiments:
Experiment in all cases: EMSA
AcrIIA15 S46A S47A = test system: T1, AcrIIA15 S46A S47A; conditions: Promoter EMSA: 20 mM Tris-HCl pH 7.5, 300 mM NaCl, on ice/4 C, 30 min; SaCas9 EMSA: 20 mM Tris pH 7.5, 200 mM NaCl, 10 mM EDTA, RT; recombinant protein; residues 1-171; protein details: C-terminal His6; label: 5'-Cy3 on strand 1
T1 sequence (looked up): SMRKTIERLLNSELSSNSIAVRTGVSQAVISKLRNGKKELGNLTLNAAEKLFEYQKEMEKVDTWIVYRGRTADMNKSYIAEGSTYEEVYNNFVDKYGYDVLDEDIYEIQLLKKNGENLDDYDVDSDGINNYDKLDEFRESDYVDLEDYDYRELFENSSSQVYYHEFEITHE

AcrIIA15 N16A N17A = test system: T2, AcrIIA15 N16A N17A; conditions: Promoter EMSA: 20 mM Tris-HCl pH 7.5, 300 mM NaCl, on ice/4 C, 30 min; SaCas9 EMSA: 20 mM Tris pH 7.5, 200 mM NaCl, 10 mM EDTA, RT; recombinant protein; residues 1-171; protein details: C-terminal His6; label: 5'-Cy3 on strand 1
T2 sequence (looked up): T1 sequence (looked up) with N17A, A47S

AcrIIA15 S30A S31A = test system: T3, AcrIIA15 S30A S31A; conditions: Promoter EMSA: 20 mM Tris-HCl pH 7.5, 300 mM NaCl, on ice/4 C, 30 min; SaCas9 EMSA: 20 mM Tris pH 7.5, 200 mM NaCl, 10 mM EDTA, RT; recombinant protein; residues 1-171; protein details: C-terminal His6; label: 5'-Cy3 on strand 1
T3 sequence (looked up): T1 sequence (looked up) with S31A, A47S

AcrIIA15 T43A T44A = test system: T4, AcrIIA15 T43A T44A; conditions: Promoter EMSA: 20 mM Tris-HCl pH 7.5, 300 mM NaCl, on ice/4 C, 30 min; SaCas9 EMSA: 20 mM Tris pH 7.5, 200 mM NaCl, 10 mM EDTA, RT; recombinant protein; residues 1-171; protein details: C-terminal His6; label: 5'-Cy3 on strand 1
T4 sequence (looked up): T1 sequence (looked up) with T44A, A47S

AcrIIA15 full-length = test system: T5, AcrIIA15 full-length; conditions: Promoter EMSA: 20 mM Tris-HCl pH 7.5, 300 mM NaCl, on ice/4 C, 30 min, SaCas9 EMSA: 20 mM Tris pH 7.5, 200 mM NaCl, 10 mM EDTA, RT, recombinant protein, residues 1-171
T5 sequence (looked up): T1 sequence (looked up) with A47S

AcrIIA15 S14A S15A = test system: T6, AcrIIA15 S14A S15A; conditions: slight decrease; Promoter EMSA: 20 mM Tris-HCl pH 7.5, 300 mM NaCl, on ice/4 C, 30 min; SaCas9 EMSA: 20 mM Tris pH 7.5, 200 mM NaCl, 10 mM EDTA, RT; recombinant protein; residues 1-171; protein details: C-terminal His6; label: 5'-Cy3 on strand 1
T6 sequence (looked up): T1 sequence (looked up) with S15A, A47S

AcrIIA15 S25A S26A = test system: T7, AcrIIA15 S25A S26A; conditions: Promoter EMSA: 20 mM Tris-HCl pH 7.5, 300 mM NaCl, on ice/4 C, 30 min; SaCas9 EMSA: 20 mM Tris pH 7.5, 200 mM NaCl, 10 mM EDTA, RT; recombinant protein; residues 1-171; protein details: C-terminal His6; label: 5'-Cy3 on strand 1
T7 sequence (looked up): T1 sequence (looked up) with S26A, A47S

AcrIIA15 R2A R3A = test system: T8, AcrIIA15 R2A R3A; conditions: mild decrease; Promoter EMSA: 20 mM Tris-HCl pH 7.5, 300 mM NaCl, on ice/4 C, 30 min; SaCas9 EMSA: 20 mM Tris pH 7.5, 200 mM NaCl, 10 mM EDTA, RT; recombinant protein; residues 1-171; protein details: C-terminal His6; label: 5'-Cy3 on strand 1
T8 sequence (looked up): T1 sequence (looked up) with R3A, A47S

AcrIIA15 Q26A Q27A = test system: T9, AcrIIA15 Q26A Q27A; conditions: Promoter EMSA: 20 mM Tris-HCl pH 7.5, 300 mM NaCl, on ice/4 C, 30 min; SaCas9 EMSA: 20 mM Tris pH 7.5, 200 mM NaCl, 10 mM EDTA, RT; recombinant protein; residues 1-171; protein details: C-terminal His6; label: 5'-Cy3 on strand 1
T9 sequence (looked up): T1 sequence (looked up) with Q27A, A47S

AcrIIA15 N34A N35A = test system: T10, AcrIIA15 N34A N35A; conditions: slight decrease; Promoter EMSA: 20 mM Tris-HCl pH 7.5, 300 mM NaCl, on ice/4 C, 30 min; SaCas9 EMSA: 20 mM Tris pH 7.5, 200 mM NaCl, 10 mM EDTA, RT; recombinant protein; residues 1-171; protein details: C-terminal His6; label: 5'-Cy3 on strand 1
T10 sequence (looked up): T1 sequence (looked up) with N35A, A47S

[1] = protein details: C-terminal His6, or His6-Sumo removed by …

Sequence | binding result (AcrIIA15 S46A S47A) | binding result (AcrIIA15 N16A N17A) | binding result (AcrIIA15 S30A S31A) | binding result (AcrIIA15 T43A T44A) | binding result (AcrIIA15 full-length; wild-type reference for the mutants, protein details: C-terminal His6, or His6-Sumo removed by Ulp1, label: 5'-Cy3 on strand 1) | binding result (AcrIIA15 S14A S15A) | binding result (AcrIIA15 S25A S26A) | binding result (AcrIIA15 R2A R3A) | binding result (AcrIIA15 Q26A Q27A) | binding result (AcrIIA15 N34A N35A) | binding result (AcrIIA15 full-length; [1])
ATAATTATGACAAATGTCATAGAAAA (double strand) [Cy3-IR1] | binds more weakly | binds more weakly | binds more weakly | binds more weakly | binds | binds more weakly | binds more weakly | binds more weakly | binds more weakly | binds more weakly | –
ATAATTATTACAAATGTAATAGAAAA (double strand) [IR1 mutant G6:C6'/C15:G15'] | – | – | – | – | – | – | – | – | – | – | binds more weakly
ATAATTGTGACAAATGTCACAGAAAA (double strand) [IR1 mutant A4:T4'/T17:A17'] | – | – | – | – | – | – | – | – | – | – | binds more weakly
